# Assay results from PubChem BioAssay AID1259354 (Paczesny and Yang Labs, IUPUI and University of Michigan, 2018).
# Amino acid sequences for entries named in this document (tags omitted). A change or cut given only in a name is not applied to a line headed by its entry.
# UniProt Q01638: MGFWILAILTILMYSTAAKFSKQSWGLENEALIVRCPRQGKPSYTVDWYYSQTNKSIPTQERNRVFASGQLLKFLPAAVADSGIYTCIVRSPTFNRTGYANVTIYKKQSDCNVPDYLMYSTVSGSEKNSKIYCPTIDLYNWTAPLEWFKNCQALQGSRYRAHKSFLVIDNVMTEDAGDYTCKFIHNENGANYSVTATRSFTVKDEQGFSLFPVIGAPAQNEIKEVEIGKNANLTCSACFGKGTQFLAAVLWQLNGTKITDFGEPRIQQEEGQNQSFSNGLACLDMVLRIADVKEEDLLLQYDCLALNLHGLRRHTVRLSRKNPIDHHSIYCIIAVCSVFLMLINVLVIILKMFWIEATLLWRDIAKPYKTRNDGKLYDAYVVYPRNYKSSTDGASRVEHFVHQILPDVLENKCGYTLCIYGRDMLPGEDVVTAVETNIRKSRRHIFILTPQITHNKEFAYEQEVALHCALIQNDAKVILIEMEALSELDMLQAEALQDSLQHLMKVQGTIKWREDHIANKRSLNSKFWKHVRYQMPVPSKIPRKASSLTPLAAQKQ
# Where “and” joins values, the source holds several entries; their conditions need not be identical. Equal values may be shown once. Out of some 78,000 compounds screened, about 1,800 (2.3%) were called active. The shares of active, inactive and inconclusive entries below differ from those in the screen. No stated cut-off is given here; in the data, active means inhibition above about 30%; inconclusive means mostly about 10% to 28%; inactive means weaker than that.
# Molecular target: Interleukin-1 receptor-like 1 (Homo sapiens) (UniProt Q01638)
# Assay: blocks human ST2 binding to IL-33, primary screen, biochemical, AlphaLISA (AID 1259354)
# Details: AlphaLISA ST2-Fc/biotin-IL-33 interaction, 1 h; at 17 µM, hits give high values
row,SMILES,inhibition
1,Cc1cc(CN2CCC(Cc3nn(C)c(=O)n3-c3ccccc3)CC2)on1,inactive
2,C=C(C)COc1ccccc1C(=O)N1CCC(Nc2ncccn2)CC1,inconclusive: 16%
3,O=C1NC(c2cccc3ccccc23)Nc2sc3c(c21)CCCC3 (stereo not given),inconclusive: 16%
4,Cc1cc2ncn(C(=O)C(Cl)Cl)c2cc1C,inactive
5,CC(=O)OC(C)(C)/C=C/C(=O)[C@](C)(O)[C@H]1C(O)C[C@@]2(C)[C@@H]3CC=C4[C@@H](C=C(O[C@@H]5O[C@H](CO)[C@@H](O)[C@H](O)[C@H]5O)C(=O)C4(C)C)[C@]3(C)C(=O)C[C@]12C (stereo not given in full),inactive
6,COC(=O)c1c(C)oc2cc(Br)c(OC(=O)c3ccco3)cc12,inactive
7,CC1CCN(C(=O)C[C@@H]2O[C@H](CNS(=O)(=O)c3ccccc3)[C@@H](O)[C@H]2O)CC1,inactive
8,CCOc1ccc2c(c1)C(OC(C)=O)C(C)(C)C(c1ccc(F)cc1)N2 (stereo not given),inconclusive: 25%
9,Cc1ccc2nc(NC(=O)CSc3nc4c([nH]c5ccccc54)c(=O)n3C)sc2c1,inactive
10,COc1ccc(C2C(C#N)=C(N)SC3C(=O)N(c4ccc(C)cc4)C(=O)C32)cc1 (stereo not given),inconclusive: 17%
11,Cc1cc(N2CCCCC2)nc(N2CCN(S(=O)(=O)c3ccc(F)cc3)CC2)n1,inactive
12,O=C(O)c1[nH]ncc1CN1CCCC(C(=O)c2ccc(C(F)(F)F)cc2)C1 (stereo not given),inactive
13,Cc1cc(C)cc(NC(=O)CSc2oc(-c3ccco3)nc2S(=O)(=O)c2ccccc2)c1,inconclusive: 11%
14,CN(C)CCNC(=O)CSc1cc(=O)n(C)c2ccccc12,inactive
15,CCOC(=O)CSc1cn(Cc2ccc(Cl)cc2)c2ccccc12,inactive
16,COc1ccc(C2=N/C(=C\c3ccccc3Cl)C(=O)O2)cc1[N+](=O)[O-],inconclusive: 15%
17,Cc1c(Cl)c([N+](=O)[O-])nn1CCCC(=O)Nc1sc2c(c1C#N)CCCCC2,inconclusive: 10%
18,C#CCNC(=O)C[C@@H]1O[C@H](CNCc2ccc(C(=O)O)cc2)[C@H]2OC(C)(C)O[C@H]21,inconclusive: 12%
19,CCOc1ccc2c(=O)c(-c3ccc(OC)cc3)c(C)oc2c1,inconclusive: 13%
20,COc1ccc(CC(=O)N2C[C@@H]3C[C@H](C2)c2c(-c4ccc(NC(C)=O)cc4)ccc(=O)n2C3)cc1,inconclusive: 16%
21,O=S(=O)(c1ccc(O)c(N=Cc2ccc[nH]2)c1)c1ccc(O)c(N=Cc2ccc[nH]2)c1,inconclusive: 21%
22,O=C(CSc1nc2c(sc3ccccc32)c(=O)n1CC1CCCO1)c1ccccc1 (stereo not given),inconclusive: 16%
23,COc1ccccc1/C=C1\C(=O)N(c2ccc(Cl)c(Cl)c2)N=C1C,inactive

row,SMILES,inhibition
1,N=C1S/C(=C\c2ccc(F)cc2)C(=O)N1c1ccc2c(c1)OCO2,inconclusive: 29%
2,CC1=NN(c2ccccc2)C(=O)/C1=C/c1ccc(-c2ccc([N+](=O)[O-])cc2C)o1,inconclusive: 10%
3,O=C1/C(=C/c2cccnc2)CS/C1=C\c1cccnc1,inconclusive: 16%
4,O=C(CSc1c2c(nc3cc(Cl)ccc13)CCCC2)NC1CC1,inactive
5,Cc1ccc(C(=O)Nc2ccc(C(=O)N(C)Cc3ncc[nH]3)cc2)o1,inconclusive: 10%
6,COC(=O)Oc1ccc2sc(=O)oc2c1,inactive
7,CCCC1CCc2c(sc(NC(=O)c3cccnc3)c2C(N)=O)C1 (stereo not given),inconclusive: 25%
8,Cc1ccsc1CN(Cc1ccccn1)CC1CCOC1 (stereo not given),inconclusive: 17%
9,N/C(=N/OCC(=O)Nc1cccc([N+](=O)[O-])c1)c1nonc1N,inactive
10,Brc1ccc(C2=Nn3c(nnc3-c3cccnc3)SC2)s1,inconclusive: 19%
11,Fc1ccccc1CN1CC[C@H](c2nnc(-c3ccco3)o2)C1,inactive
12,C=CCNC(=O)c1cc(-c2cccc(Cl)c2)on1,inactive
13,CCOC(=O)c1c(NC(=O)CCCn2nc(C)c([N+](=O)[O-])c2C)sc2c1CCC(C)C2 (stereo not given),inconclusive: 13%
14,CCN1CCc2c(sc(NC(=O)c3ccc(Br)s3)c2C(=O)OC)C1,inconclusive: 13%
15,CCOc1ccc(C2CC(=O)N3CN(c4ccccc4)CSC3=C2C#N)cc1OC (stereo not given),inconclusive: 14%
16,CCOC(=O)C1=C(C)Nc2nc(SCc3ccc(Cl)cc3)nn2C1c1cccs1 (stereo not given),inactive
17,O=C(CCCn1cnc([N+](=O)[O-])n1)Nc1cc(C(F)(F)F)ccc1Cl,inactive
18,Cc1ccc(C)c(NC(=O)NCCc2nc3cccnc3n2C2CCCCC2)c1,inconclusive: 11%
19,O=C(NCCCN1CCOCC1)c1cc(=O)[nH]c2ccc(S(=O)(=O)N3CCCC3)cc12,inconclusive: 10%
20,CC1=CC(=O)/C(=C\c2c(O)cc(C)oc2=O)C(=O)O1,inactive
21,O=[N+]([O-])c1ccc(C2Nc3cc(Cl)cc(Cl)c3C3C=CCC32)cc1 (stereo not given),active: 32%
22,CC(O)CNc1ccc(Cl)cc1[N+](=O)[O-] (stereo not given),inactive
23,Cn1ccnc1CN1CCN(C(=O)CC(c2ccccc2)c2ccccc2F)CC1 (stereo not given),inconclusive: 20%

# Of the compounds above, these contain a CF3 group.
row,SMILES,inhibition
12,O=C(O)c1[nH]ncc1CN1CCCC(C(=O)c2ccc(C(F)(F)F)cc2)C1 (stereo not given),inactive
17,O=C(CCCn1cnc([N+](=O)[O-])n1)Nc1cc(C(F)(F)F)ccc1Cl,inactive

# (further entries)

row,SMILES,inhibition
1,Cn1c(=O)c2c(nc(NCCCO)n2Cc2ccc(F)cc2)n(C)c1=O,inconclusive: 16%
2,Cc1cccc(NC(=O)CN(c2ccc(Br)cc2)S(C)(=O)=O)c1,inconclusive: 17%
3,COc1ccc2oc(=Nc3cccc(F)c3)c(C(=O)Nc3ccccc3)cc2c1,inconclusive: 20%
4,CC1CN(c2ccc([N+](=O)[O-])cc2)CCN1S(=O)(=O)Cc1ccccc1 (stereo not given),inconclusive: 11%
5,CCN(Cc1ccsc1)Cc1noc(C2CCC2)n1,inconclusive: 15%
6,Cc1ccc2nc(CNC(=O)CN3C(=O)CCc4cc(S(=O)(=O)N5CCCC5)ccc43)[nH]c2c1,inactive
7,O=C(C[C@@H]1CCNC[C@@H]1Cc1cc(-c2ccc(F)cc2)on1)N1CCC(Cc2ccccc2)CC1,inconclusive: 12%
8,C=CCNC(=O)c1cnn(-c2ccccc2)c1NC(C)=O,inactive
9,Cc1nc2cc(CC(=O)O)ccc2s1,inconclusive: 11%
10,Cc1cnc(NCCNC(=O)c2cccnc2)nc1N(C)C,inactive
11,Cc1nc2cc(-c3ccccc3)nn2c(C)c1CCC(=O)NC(C)c1cccs1 (stereo not given),inconclusive: 13%
12,COc1ccc(S(=O)(=O)N2CCN(C(=O)c3cccc([N+](=O)[O-])c3)CC2)cc1,inactive
13,CC(C)Cc1cc(CNC(=O)c2cn3c(n2)CNCC3)no1,inconclusive: 18%
14,CC1(C)Oc2ccc(Br)cc2C2CC(c3cccs3)=NN21 (stereo not given),inconclusive: 23%
15,Cc1[nH]c(-c2ccccc2)nc1C(=O)N1C[C@@H]2[C@@H]3CC[C@@H](C3)[C@@H]2C1,inconclusive: 12%
16,NC(=NS(=O)(=O)c1ccc(F)cc1F)c1ccccc1,inconclusive: 23%
17,CCN(C(=O)CCN1CCOC2(CCCC2)C1)c1ccccc1,inconclusive: 11%
18,Cc1cc(C)c(S(=O)(=O)Nc2ccc(S(=O)(=O)Nc3ncccn3)cc2)c(C)c1,inactive
19,COc1ccc2c(C)nc(NC3=NC(C)(C)CC(C)=N3)nc2c1,inconclusive: 19%
20,O=[N+]([O-])c1ccc(N2CCN(CCO)CC2)c2ncccc12,inconclusive: 20%
21,COc1ccc(OC)c(CC(=O)N2CCC(Cc3nncn3C)CC2)c1,inconclusive: 16%
22,CCN(CCc1nc2c(C)cccc2[nH]1)C(=O)c1ccc(=O)n(C)c1,inconclusive: 25%
23,Cn1c(=O)[nH]c(=O)c2c1nc(CN1CCOCC1)n2Cc1ccc(Cl)cc1,inactive

# A run of entries taken from the entries so far, as a working copy:
row,SMILES,inhibition
19,COc1ccc2c(C)nc(NC3=NC(C)(C)CC(C)=N3)nc2c1,inconclusive: 19%
20,O=[N+]([O-])c1ccc(N2CCN(CCO)CC2)c2ncccc12,inconclusive: 20%
21,COc1ccc(OC)c(CC(=O)N2CCC(Cc3nncn3C)CC2)c1,inconclusive: 16%

# Additional entries follow.

row,SMILES,inhibition
1,CCOC(=O)c1c(N)n[nH]c1-c1ccccc1,inconclusive: 18%
2,CCCCSc1oc(-c2ccco2)nc1S(=O)(=O)c1ccc(F)cc1,inconclusive: 17%
3,O=S(=O)(N[C@H]1CO[C@H]2[C@@H]1OC[C@@H]2n1nnnc1Oc1ccc(-n2ccnc2)cc1)c1cccs1,inactive
4,O=C1OCC2=C1C(c1ccc3c(c1)OCO3)Sc1ccccc1N2 (stereo not given),inconclusive: 13%
5,CC(C)(C)N=C(NS(=O)(=O)c1ccc(Br)cc1)c1ccccc1,inconclusive: 24%
6,Cc1ccsc1[C@@H]1CCN(Cc2ccc(CN(C)S(C)(=O)=O)o2)C[C@H]1O,inconclusive: 17%
7,Cc1ccc(-c2nnc(-c3nc(NCCCc4ccccc4)c4ccccc4n3)o2)cc1,inconclusive: 18%
8,CCCn1cc(C(=O)N2CCNC(C(=O)O)C2)c(C)n1 (stereo not given),inconclusive: 13%
9,COc1ccc(Cc2c(O)nc(SCC(=O)N3CCOCC3)[nH]c2=O)cc1,inconclusive: 12%
10,O=C(CN1CCN(Cc2ccc(F)cc2Cl)S1(=O)=O)Nc1ccc(F)cc1F,inactive
11,COc1cccc2cc(C(N)=O)c(=Nc3ccc(C(C)=O)cc3)oc12,inconclusive: 13%
12,CCC1Oc2ccccc2N(CC(=O)N(C)CCC#N)C1=O (stereo not given),inactive
13,O=C(CSc1nc2c(c(=O)n1-c1ccccc1)SCC2)Nc1ccc(F)cc1,inconclusive: 25% and inconclusive: 12%
14,CN1CCN(C(=O)CCC2CCCN(Cc3cccc4cnccc34)C2)CC1 (stereo not given),inactive
15,Cc1ccc(NC(=O)CC(=O)N2CCCN(C)C3(CCN(C)CC3)C2)cc1,inconclusive: 12%
16,Cc1c(Cl)ccc(S(=O)(=O)NCCOC23CC4CC(CC(C4)C2)C3)c1Cl,inactive
17,C=CCSc1nnc2c(n1)OC(c1cccnc1)N(C(C)=O)c1ccccc1-2 (stereo not given),inconclusive: 10%
18,CN1CC2(CCN(C(=O)c3ccc(Oc4ccccc4)o3)C2)OC1=O (stereo not given),inconclusive: 21%
19,c1ccc(Cc2nc(C3CCCN(Cc4ccco4)C3)n[nH]2)cc1 (stereo not given),inactive
20,COc1ccc(CN2CCc3cc(OC)c(OC)cc3C2)cc1Br,inconclusive: 20%
21,C[C@@H]1[C@H]2[C@H](O[C@@H]3O[C@H](CO)[C@@H](O)[C@H](O)[C@H]3O)OC=C(C(=O)O)[C@H]2C[C@@H]1O,inconclusive: 10%
